Results are given in words; binding and its absence hold for the method and conditions named. Binding seen in cells or lysates may run through a third protein. A yes stands for co-enrichment or nearness to the bait. Other partners may have been found. A no says only that the protein was not detected with the bait. Where a sequence is shown, tags or fusion partners need not be part of it.

This assay deals with T1, 6xHis-SUMO-DarB (Bacillus subtilis 168) (UniProt O31698).
T1 sequence: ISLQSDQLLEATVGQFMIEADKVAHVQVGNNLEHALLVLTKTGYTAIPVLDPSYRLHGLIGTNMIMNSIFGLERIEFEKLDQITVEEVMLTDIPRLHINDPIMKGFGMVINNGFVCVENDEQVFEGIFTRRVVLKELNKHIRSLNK
The experiment in a line: affinity purification with mass spectrometry.

On to CcpC (endogenous), for which the binding result is listed as “no binding”.
